Results are given in words; binding and its absence hold for the method and conditions named. In cells and extracts the contact can be indirect. Some results given as binding are weak or reduced against the parent protein; the word gives no strength. For some assays here: Sequences can lack the tags named with a protein.
B1: p54^nrb, endogenous (HeLa) (protein, UniProt Q15233 1-471)
chain: MQSNKTFNLEKQNHTPRKHHQHHHQQQHHQQQQQQPPPPPIPANGQQASSQNEGLTIDLKNFRKPGEKTFTQRSRLFVGNLPPDITEEEMRKLFEKYGKAGEVFIHKDKGFGFIRLETRTLAEIAKVELDNMPLRGKQLRVRFACHSASLTVRNLPQYVSNELLEEAFSVFGQVERAVVIVDDRGRPSGKGIVEFSGKPAARKALDRCSEGSFLLTTFPRPVTVEPMDQLDDEEGLPEKLVIKNQQFHKEREQPPRFAQPGSFEYEYAMRWKALIEMEKQQQDQVDRNIKEAREKLEMEMEAARHEHQVMLMRQDLMRRQEELRRMEELHNQEVQKRKQLELRQEEERRRREEEMRRQQEEMMRRQQEGFKGTFPDAREQEIRMGQMAMGGAMGINNRGAMPPAPVPAGTPAPPGPATMMPDGTLGLTPPTTERFGQAATMEGIGAIGGTPPAFNRAAPGAEFAPNKRRRY
B2: GFP-SRSF2 (in MDAH cells) (protein, UniProt Q01130 1-221)
chain: MSYGRPPPDVEGMTSLKVDNLTYRTSPDTLRRVFEKYGRVGDVYIPRDRYTKESRGFAFVRFHDKRDAEDAMDAMDGAVLDGRELRVQMARYGRPPDSHHSRRGPPPRRYGGGGYGRRSRSPRRRRRSRSRSRSRSRSRSRSRYSRSKSRSRTRSRSRSTSKSRSARRSKSKSSSVSRSRSRSRSRSRSRSPPPVSKRESKSRSRSKSPPKSPEEEGAVSS

Experiments:
[1] = molecular target: T1, SRSF2, endogenous (HeLa) (human (endogenous in HeLa)) (UniProt Q01130); test: co-IP; endogenous proteins, nuclear fraction of HeLa cells, untreated or CDDP 50 µM for 3 and 6 h; lysates IP with anti-SRSF2 antibody
T1 sequence: B2 chain

[2] = molecular target: T2, SFPQ, endogenous (MDAH) (human (endogenous in MDAH-2774)) (UniProt P23246); test: co-IP; MDAH cells stably transduced with sh-ctrl or sh-p54nrb, transiently transfected with GFP-SRSF2, CDDP 50 µM for 3 h; IP with anti-SFPQ antibody on nuclear extracts
T2 sequence: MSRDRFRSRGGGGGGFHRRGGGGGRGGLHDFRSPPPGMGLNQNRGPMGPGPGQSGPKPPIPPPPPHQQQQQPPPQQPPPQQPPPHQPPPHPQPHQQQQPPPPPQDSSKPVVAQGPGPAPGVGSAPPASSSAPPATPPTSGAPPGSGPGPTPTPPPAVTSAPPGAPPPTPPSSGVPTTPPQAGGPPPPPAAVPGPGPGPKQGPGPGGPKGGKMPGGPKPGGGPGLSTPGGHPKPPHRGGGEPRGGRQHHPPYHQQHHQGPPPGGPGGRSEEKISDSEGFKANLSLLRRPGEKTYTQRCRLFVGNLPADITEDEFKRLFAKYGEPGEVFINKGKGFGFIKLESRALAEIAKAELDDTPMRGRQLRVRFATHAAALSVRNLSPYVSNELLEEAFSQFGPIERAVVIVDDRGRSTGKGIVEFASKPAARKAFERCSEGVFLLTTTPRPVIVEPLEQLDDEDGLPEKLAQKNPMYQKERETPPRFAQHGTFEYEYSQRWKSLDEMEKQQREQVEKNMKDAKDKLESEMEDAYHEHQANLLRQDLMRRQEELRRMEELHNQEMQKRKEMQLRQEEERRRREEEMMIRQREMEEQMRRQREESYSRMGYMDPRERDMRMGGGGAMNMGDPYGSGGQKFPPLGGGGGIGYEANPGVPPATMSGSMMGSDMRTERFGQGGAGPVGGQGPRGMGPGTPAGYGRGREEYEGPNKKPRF

Row | Binder | binding [1] | binding [2]
1 | B1 | binds | –
2 | B2 | – | binds
